Measurements as given in PubChem BioAssay AID2685 (National Center for Advancing Translational Sciences (NCATS), 2010).
The list shows a part of the results. These are further read-outs of the screen, such as a control signal, another cell line or another target. No call is given for them. Compounds called inactive in the main read-out are mostly missing here. The note in brackets gives the kind of curve behind each potency; many fits are weak.

Experiment: qHTS Assay for Lipid Storage Modulators in Drosophila S3 Cells;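 on cell number change: cells counted by Cell Tracker Red CMTPX staining in the red channel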
Settings: BODIPY lipid droplet fluorescence, 18-24 h; for cell number change: measured here: cell count max response, cells fed with added oleic acid
Outline: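 Drosophila S3 cells loaded with oleic acid (400 uM, as added) and compounds at several concentrations; lipid droplets imaged by 488-nm laser-scanning cytometry, 500–530 nm intensity and object ratio to cell channel. Percent activity normalized to 20 uM Triacsin C.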

[1] = measured here: lipid fluorescence (Fed channel) AC50, cells fed with added oleic acid
[2] = measured here: cell number channel AC50, cells fed with added oleic acid

| SMILES | cell number change | AC50 [1] | AC50 [2] |
| --- | --- | --- | --- |
| N/C(=N\OC(=O)CC1CCCCC1)c1cccc(Br)c1 | -8.81% | 4.61 µM [falling, single point] |  |
| COC(=O)c1cc2c(s1)-c1ccccc1OC2 | -4.83% |  |  |
| CCOC(=O)C1(CC2CC2)CCN(Cc2cn[nH]c2-c2ccccc2)CC1 | 2.49% | 0.58 µM [falling, single point] |  |
| CC(C)c1ccc(OCC(O)Cn2cnc3ccccc32)cc1 (stereo not drawn) | -42.3% | 32.6 µM [falling, single point] | 29.1 µM [falling, single point] |
| O=C(COC(=O)c1ccc(Br)o1)NC1CCCc2ccccc21 (stereo not drawn) | -2% | 29.1 µM [falling, single point] | 0.164 µM [falling, full curve, poor fit] |
| COc1cc(OC)c(C(=O)NCC(c2cccs2)N(C)C)cc1OC (stereo not drawn) |  | 6.51 µM [rising, single point] |  |
| CN1CCN(NC(=O)NC2CCCCC2)CC1 | 18.3% |  | 2.06 µM [rising, partial curve, poor fit] |
| Cc1cc(/C=N/NC(=O)c2cc3ccccc3o2)c(C)n1C | 19.7% | 0.103 µM [rising, partial curve, poor fit] |  |
| COCCCNC(=S)NCCc1ccc(F)cc1 | -42.1% | 16.4 µM [falling, partial curve, poor fit] | 0.92 µM [falling, full curve] |
| Cc1ccc(C(=O)Nn2c(N)c(S(=O)(=O)c3ccc(C)cc3)c3nc4ccccc4nc32)cc1 |  | 0.58 µM [rising, single point] |  |
| CS(=O)(=O)NCc1ccccc1Br | 6.02% | 29.1 µM [rising, single point] |  |
| O=[N+]([O-])c1cccc(C(=S)N2CCN(c3ccccc3F)CC2)c1 | 19% | 1.46 µM [rising, full curve] | 0.206 µM [rising, full curve, poor fit] |
| CCOc1ccc(N2C(=O)CN(O)C=C3N=c4ccccc4=C32)cc1 | -26.2% | 14.6 µM [falling, single point] |  |
| CC(=O)c1cccc(NC(=O)CNC(=O)c2sc3ccccc3c2Cl)c1 | 11.2% | 0.092 µM [rising, full curve, poor fit] |  |
| Cc1csc(NC(=O)C2CCCN(S(=O)(=O)c3cccnc3)C2)n1 (stereo not drawn) | 5.42% |  |  |
| COc1cc(NC(=O)CNc2cccc(S(=O)(=O)N3CCOCC3)c2)cc(OC)c1 | 5.99% | 20.6 µM [rising, single point] |  |
| O=C(Nc1nnc(C(F)(F)F)s1)C1COc2ccccc2O1 (stereo not drawn) | 20.6% | 20.6 µM [falling, single point] |  |
| Cc1ccc(OCc2n[nH]c(=S)n2C2CCCCC2)cc1 | -40.9% |  | 29.1 µM [falling, single point] |
| Cn1c(SCC(=O)c2ccc3c(c2)Cc2ccccc2-3)nnc1-c1cccc(N)c1 | 1.65% |  | 1.03 µM [rising, full curve, poor fit] |
| CCN(CC(=O)Nc1cc(OC)ccc1OC)Cc1nc2ccccc2c(=O)[nH]1 | 30.3% |  |  |

| SMILES | cell number change | AC50 [1] | AC50 [2] |
| --- | --- | --- | --- |
| OCCN(CCO)CC(O)CN1c2ccccc2Sc2ccccc21 (stereo not drawn) | 22.2% | 14.6 µM [falling, partial curve] |  |
| O=C(COC(=O)CCC1CCCC1)Nc1ccc(F)cc1Cl | -29.6% | 0.92 µM [falling, full curve] | 0.92 µM [falling, full curve] |
| CCOc1ccc(CNn2cnnc2)cc1 | 24.6% | 5.17 µM [rising, single point] |  |
| CN(CC(O)CON=C1c2ccccc2-c2ccccc21)S(=O)(=O)c1ccc(Br)cc1 (stereo not drawn) | -28.1% | 1.46 µM [falling, partial curve] |  |
| O=[N+]([O-])c1ccc(Nc2c3ccccc3nc3ccccc23)cc1 | -5.57% |  |  |
| COc1ccc(OC)c(N/C(C)=C/C(=O)c2ccccc2)c1 | -33.3% | 0.13 µM [falling, partial curve, poor fit] |  |
| O=C1c2ccccc2C(=O)N1CC1c2ccccc2CCN1C(=O)N1CCOCC1 (stereo not drawn) | 0.214% | 6.51 µM [falling, single point] |  |
| O=S(=O)(c1ccccc1)c1nc(-c2ccco2)oc1NCc1ccco1 | 120% | 9.2 µM [rising, partial curve] | 8.2 µM [rising, partial curve] |
| O=C(NN1C(=O)C2C3CCC(O3)C2C1=O)c1ccco1 (stereo not drawn) | 22.7% | 0.164 µM [falling, full curve, poor fit] |  |
| Nn1cnnc1N/N=C/c1cc([N+](=O)[O-])c(Cl)cc1Cl | -19.5% | 29.1 µM [rising, single point] | 3.66 µM [rising, partial curve] |
| NS(=O)(=O)c1cccc(NC(=O)c2ccccc2NS(=O)(=O)c2ccc(F)cc2)c1 | 7.39% |  |  |
| Cc1ccc(NC(=O)CN(C)C(=O)Cn2cc(C(F)(F)F)cc(Cl)c2=O)cc1 | 7.95% | 0.146 µM [falling, full curve, poor fit] |  |
| COC(=O)CCN1CCN(S(=O)(=O)c2ccccc2Br)CC1 | -8.17% |  |  |
| Cc1cccc(C2C3=C(CCCC3=O)N=C3c4ccccc4C(=O)C32)c1 (stereo not drawn) | 1.49% | 0.651 µM [rising, single point] |  |
| CC(C)(CC(=O)O)CC(=O)N1CCN(c2cc(C(F)(F)F)nc3ccccc23)CC1 | -33.9% | 7.31 µM [falling, partial curve] | 6.51 µM [falling, partial curve] |
| O=C(O)c1ccc(S(=O)(=O)Nc2ccc(F)c(Cl)c2)cc1 | -11.7% | 7.31 µM [falling, single point] |  |
| O=C(c1ccc([N+](=O)[O-])cc1)N1C=CC(C(F)(F)F)=NCC1 | -39.7% | 29.1 µM [falling, single point] | 32.6 µM [falling, single point] |
| COc1ccc(-n2nnnc2Sc2ccc(S(=O)(=O)N3CCOCC3)cn2)cc1 | 9.87% | 0.00461 µM [rising, full curve, poor fit] |  |
| CCOC(=O)COc1nc(-c2ccco2)cc(-c2ccco2)c1C#N | 16.6% |  | 0.0651 µM [rising, full curve, poor fit] |
| CCOC(=O)c1nc2nc(-c3cccs3)cc(C(F)(F)F)n2n1 | 35.8% | 0.366 µM [rising, full curve, poor fit] | 10.3 µM [rising, partial curve] |

| SMILES | cell number change | AC50 [1] | AC50 [2] |
| --- | --- | --- | --- |
| Cc1nc(Nc2ccc(S(N)(=O)=O)cc2)sc1-c1ccccc1 | 10.5% |  |  |
| CCCc1nc(SCc2ccc(Cl)cc2Cl)n[nH]1 | -22.6% |  |  |
| N=C1C=CC=C2C1=NC1(CCCCC1)N2O | -0.683% |  |  |
| CC(Cl)C(=O)NN=C(c1ccccc1)c1ccccc1 (stereo not drawn) | 39.2% | 32.6 µM [rising, single point] | 29.1 µM [rising, single point] |
| COc1ccccc1CNC(=O)COC(=O)C1CCN(S(=O)(=O)c2ccccc2)CC1 | -20.2% | 0.231 µM [falling, full curve, poor fit] |  |
| COc1ccc(NC(=O)c2sc(Cl)nc2-c2ccccc2)cc1 | -61.3% | 29.1 µM [falling, single point] | 29.1 µM [falling, single point] |
| Cc1cc(C)c(S(=O)(=O)N2CCCC(C(=O)NCc3ccncc3)C2)c(C)c1 (stereo not drawn) | 19.7% |  | 0.058 µM [rising, full curve, poor fit] |
| CC(C)(C)OC(=O)CNC(=O)c1nc[nH]c1C(=O)NCC(=O)OC(C)(C)C |  | 6.51 µM [rising, single point] |  |
| CC(C)(C)N/N=C/c1c(O)n(-c2ccc(Cl)cn2)c(=O)c2ccccc12 | 13.8% | 29.1 µM [rising, single point] |  |
| CC[n+]1c(/C=C/N(C)c2ccccc2)oc2ccccc21 | -31.6% |  | 10.3 µM [falling, single point] |
| Cc1cc(C)n(Cc2ccc(NC(=O)c3ccc(COc4ccccc4Br)cc3)cc2)n1 | 63.5% | 29.1 µM [falling, single point] | 23.1 µM [rising, partial curve] |
| Cc1cc(N2CCOCC2)nc(NCc2ccccc2)n1 | -32.1% | 1.03 µM [falling, full curve] | 0.82 µM [falling, full curve, poor fit] |
| Cc1cc(OCCOCCN(C)C)ccc1Cl | -17.4% | 0.366 µM [falling, full curve, poor fit] |  |
| Cc1cc2nc(NC3=NCN(Cc4ccc5c(c4)OCO5)CN3)nc(C)c2cc1C | 15.1% | 4.11 µM [rising, single point] |  |
| COc1ccc(C(CNC(=O)C(C)(C)Oc2ccc(Cl)cc2)N2CCCCC2)cc1 (stereo not drawn) | 52.2% | 29.1 µM [rising, single point] | 29.1 µM [rising, single point] |
| COc1ccc(C(=O)N2CCN(CCNC(=O)C(=O)Nc3ccc(F)cc3)CC2)cc1OC | -7.14% | 0.58 µM [rising, single point] |  |
| COc1ccc(CCNC(=O)CCCCC(=O)NCCc2ccc(OC)cc2)cc1 | 17.3% | 29.1 µM [rising, single point] |  |
| O=C(NC1CCCc2ccccc21)c1cccc(Br)c1 (stereo not drawn) | 15.3% | 7.31 µM [rising, partial curve] |  |
| CCOC(=O)CNC(=O)CSc1ccc(-c2nc3ccccc3[nH]2)cn1 | -1.4% |  |  |
| CN(C)c1ccc(P(=O)(OC2CCCCC2)C(Nc2ccccc2)c2cccnc2)cc1 (stereo not drawn) | 27.6% | 0.517 µM [rising, full curve] | 0.92 µM [rising, full curve, poor fit] |
